Measured values as given in CN114605541A.
Where a chain is given by its changes, count along the chain named. No constants are given. Whether binding was seen depends on the method and setting. Some entries that bind do so weakly or less than the wild type.

Protein sequences, listed by entry. Tags and fused reporters are not part of them. Residues count along the entry.
UniProt Q07011, residues 24-186: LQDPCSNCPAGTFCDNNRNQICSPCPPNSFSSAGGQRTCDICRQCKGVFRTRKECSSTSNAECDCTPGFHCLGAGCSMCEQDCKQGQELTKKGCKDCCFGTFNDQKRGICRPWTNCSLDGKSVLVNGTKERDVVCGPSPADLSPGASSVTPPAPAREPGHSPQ

B1: P1-10B (VHH)
VHH: AVQLVESGGGLVQPGGSLRLSCVASGNIFSIRVWSWYRQAPGKQRELVAWFAWDNIAHYTDSAKGRFTISRDNTKKTLYLQMNSLKLEDTAVYYCNSEDSWGQGTQVTVSS
B2: P2-2E (VHH)
VHH: B1 VHH with V23A, A63V
B3: P1-8B (VHH)
VHH: B1 VHH with V23A, F29S, W34I, A40G, F51I, T60V, L78T, A91D, E98G
B4: P1-1G (VHH)
VHH: B1 VHH with V23A, S30D, W34I, P41T, F51I, I56V, T60V, L78T, E98G
B5: P1-1C (VHH)
VHH: B1 VHH with V23A
B6: P2-12G (VHH)
VHH: B1 VHH with V23A, W34S, S35A, F51I, T60A, L78A, E98G
B7: P2-9C (VHH)
VHH: B1 VHH with V23A, F67S
B8: P2-3F (VHH)
VHH: B1 VHH with V23A, S30D, V33I, W34M, E46D, F51I, I56V, T60G, L78W, E98G
B9: P2-8G (VHH)
VHH: B1 VHH with V23A, S30N, W34R, F51I, I56V, T60A, L78M
B10: P2-10H (VHH)
VHH: B1 VHH with V23A, N83D
B11: P2-7F (VHH)
VHH: B1 VHH with V23A, L78M, E98G
B12: P1-1F (VHH)
VHH: B1 VHH with V23A, A24V, W34M, T60A, E98G, Q103P
B13: P2-8A (VHH)
VHH: B1 VHH with V23A, T68A
B14: P2-9H (VHH)
VHH: B1 VHH with V23A, D61N
B15: P2-3C (VHH)
VHH: B1 VHH with V23A, W34M, F51I, I56V, A57V, T60G, I69M, L78A, E98G
B16: P1-6H (VHH)
VHH: B1 VHH with V23A, W34M, T60A, E98G, Q103P
B17: P1-2F (VHH)
VHH: AVQLVESGGGLVQPGGSVRLSCAASGSIFSSYAVAWYRQAPGKPRELVAVISSEGTTRYADSVKGRFTISRDNAKNTVYLQMNSLKPEDTAVYYCFGGRSSMGTWGQGTQVTVSS
B18: P2-1D (VHH)
VHH: B17 VHH with V18L
B19: P1-1B (VHH)
VHH: AVQLVESGGGSVQPGGSLRLSCAASGNIFNIHVSAWYRQAPGKQRELVAWIAWDNVAHYADSAKGRFTISRDNTNKTAYLQMNSLNVEDTAVYYCNSGDIWGQGTQVTVSS
B20: P2-4B (VHH)
VHH: B19 VHH with S11L, N30S, N75K, A78T, N86K, V87L, V92A, I100F
B21: P2-2H (VHH)
VHH: AVQLVESGGGLVQPGGSLRLSCAASGNISSIRVISWYRQGSGKQRELVAWFAWDNVAHYVDSVKGRFTISRDNTKKTTYLQMNSLKLEDTDVYYCNSGDSWGQGTQVTVSS
B22: P1-1A (VHH)
VHH: B21 VHH with I31L, S35A, S41P, F51I, N55D, V56I, V63A, T68A, S70W
B23: P1-4F (VHH)
VHH: B21 VHH with S25P, I31L, S35A, S41P, F51I, N55D, V56I, V63A, T68A, S70W
B24: P1-1E (VHH)
VHH: AVQLVESGGGLVQPGGSLRLSCAASGSIFSIYAMVWYRQAPGKQRDFVASITSGGSTIYADSVKGRFTISRDNAKNTTYLQMNSLKPEDTAVYYCNSLGSWDGERYEYDYWGQGTQVTVSS
B25: P1-12H (VHH)
VHH: B24 VHH with Y94H
B26: P2-11H (VHH)
VHH: B24 VHH with V35A
B27: P2-11D (VHH)
VHH: AVQLVESGGGLVQSGGSLRLSCAASGNISSLHVIAWYRQGPGKQRELVAWIAWDDIAHYVDSAKGRFAIWRDNTKKTTYLQMNSLKLEDTDVYYCNSGDSWGQGTQVTVSS
B28: P1-7D (VHH)
VHH: AVQLVESGGGLVQPGGSLRLTCAASGDIFSSQPMSWYRQAPGKRRDLVAWIAWDNIAHYTDSAKGRFTISRDNTKKTTWLQMNSLKLEDTAVYYCASGDSWGQGTQVTVSS
B29: P2-5A (VHH)
VHH: AVQLVESGGGLVQPGGSLRLSCAASGFTFSSYASSWVRQAPGKGLEWVAGINSDSGRMSYADSVKGRFTISRDNAKNTQYLQMISLKSEDTAVYYCATHSGWSRLDYIRYWGQGTQVTVSS
B30: P2-7D (VHH)
VHH: AVQLVESGGGLVQPGGSLRLSCAASGSIFSIDRMGWYRQAPGKQRELVAMINSSGGTYYLDSVKGRFTISRDNAKIAMYLQMNSLKSEDTAVYYCHYWISHEMNYWGKGTQVTVSS
B31: P1-4B (VHH)
VHH: B30 VHH with D32N, L60V, M78I, Y79D, M82T, S87P, Y97C, I99V
B32: P2-10F (VHH)
VHH: AVQLVESGGGLVQPGGSLRLSCAASGSIFSIYAMGWYRQAPGKQREVVALITSGGSTVYGDSVKGRFTISRDNAKNTVYLQMNSLKPEDTAVYYCNALGGWENGKYKYDYWGQGTQVTVSS

Each binder was assayed against 4-1BB ECD蛋白 (4-1BB extracellular domain, Fc tag cut off with thrombin) (UniProt Q07011) (assay: monoclonal phage ELISA on coated 4-1BB, first and second round (CD28 and BSA as negative controls)).

binding, binds:
B1, B2, B3, B4, B5, B6, B7, B8, B9, B10, B11, B12, B13, B14, B15, B16, B17, B18, B19, B20, B21, B22, B23, B24, B25, B26, B27, B28, B29, B30, B31, B32
